{"source": "PubChem BioAssay AID652272 – Drosophila RNAi Screening Center | 2013", "test": "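Genome-wide knock-down search for components of Hedgehog signalling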 (primary screen)", "cell system": "Drosophila clone 8 (Cl8) cells", "reagent": "long dsRNA against Drosophila genes", "read-out": "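Firefly light from a Hedgehog-responsive ptc promoter reporter and Renilla reference light, both read on a plate reader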", "scale": "firefly Hh reporter signal: higher = more ptc reporter light; Renilla reference signal: higher = more Renilla control light", "rule for the call": "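Hit when the z-score averaged over two replicates is under -2 or over +3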", "meaning of the calls": "active = hit: reporter lowered or raised; inactive = not a hit", "note": "The screen tested about 21,000 reagents; this is a random part of those with a known target gene and a result. Over the whole deposit, 503 (2.4%) are marked active. 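Raw plate light values, not normalised; calls rest on replicate z-scores that were not deposited; hits include reporter decreases as well as increases.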 The record does not give: the amount of reagent, the time to read-out."}
{"predicted target": "CG42552 (retired record) (GeneID 8674047)", "DRSC id": "DRSC11512", "firefly Hh reporter signal, replicate 1": 1.79e5, "Renilla reference signal, replicate 1": 3820, "Call": "inactive"}
{"predicted target": "Targ3 (GeneID 5740205)", "DRSC id": "DRSC11471", "firefly Hh reporter signal, replicate 1": 3.15e5, "Renilla reference signal, replicate 1": 7113, "Call": "inactive"}
{"predicted target": "tth (GeneID 32318)", "DRSC id": "DRSC19435", "firefly Hh reporter signal, replicate 1": 81708, "firefly Hh reporter signal, replicate 2": 72560, "Renilla reference signal, replicate 1": 1316, "Renilla reference signal, replicate 2": 833, "Call": "inactive"}
{"predicted target": "ppk31 (GeneID 318575)", "DRSC id": "DRSC13811", "firefly Hh reporter signal, replicate 1": 1955, "firefly Hh reporter signal, replicate 2": 2.29e5, "Renilla reference signal, replicate 1": 538, "Renilla reference signal, replicate 2": 4807, "Call": "inactive"}
{"predicted target": "S-Lap3 (GeneID 326187)", "DRSC id": "DRSC10956", "firefly Hh reporter signal, replicate 1": 55092, "firefly Hh reporter signal, replicate 2": 76560, "Renilla reference signal, replicate 1": 2393, "Renilla reference signal, replicate 2": 2835, "Call": "inactive"}
{"predicted target": "CG4098 (GeneID 39854)", "DRSC id": "DRSC10399", "firefly Hh reporter signal, replicate 1": 1.73e5, "Renilla reference signal, replicate 1": 5517, "Renilla reference signal, replicate 2": 5125, "Call": "inactive"}
{"predicted target": "Rab35 (GeneID 33014)", "DRSC id": "DRSC20691", "firefly Hh reporter signal, replicate 1": 1.31e5, "firefly Hh reporter signal, replicate 2": 69459, "Renilla reference signal, replicate 1": 3091, "Renilla reference signal, replicate 2": 1993, "Call": "inactive"}

Already shown: entries from further up.
{"predicted target": "Targ3 (GeneID 5740205)", "DRSC id": "DRSC11471", "firefly Hh reporter signal, replicate 1": 3.15e5, "Renilla reference signal, replicate 1": 7113, "Call": "inactive"}
{"predicted target": "tth (GeneID 32318)", "DRSC id": "DRSC19435", "firefly Hh reporter signal, replicate 1": 81708, "firefly Hh reporter signal, replicate 2": 72560, "Renilla reference signal, replicate 1": 1316, "Renilla reference signal, replicate 2": 833, "Call": "inactive"}

Next entries follow:
{"predicted target": "CG31287 (GeneID 318663)", "DRSC id": "DRSC13138", "firefly Hh reporter signal, replicate 1": 57925, "firefly Hh reporter signal, replicate 2": 1.77e5, "Renilla reference signal, replicate 1": 12774, "Renilla reference signal, replicate 2": 3703, "Call": "inactive"}
{"predicted target": "CG15628 (GeneID 33681)", "DRSC id": "DRSC00256", "firefly Hh reporter signal, replicate 1": 3.68e5, "firefly Hh reporter signal, replicate 2": 68218, "Renilla reference signal, replicate 1": 19283, "Renilla reference signal, replicate 2": 3296, "Call": "inactive"}
{"predicted target": "CG15628 (GeneID 33681)", "DRSC id": "DRSC00463", "firefly Hh reporter signal, replicate 1": 1.03e5, "firefly Hh reporter signal, replicate 2": 72781, "Renilla reference signal, replicate 1": 2806, "Renilla reference signal, replicate 2": 5840, "Call": "inactive"}
{"predicted target": "Pgant4 (GeneID 261610)", "DRSC id": "DRSC00717", "firefly Hh reporter signal, replicate 1": 1.42e5, "firefly Hh reporter signal, replicate 2": 97957, "Renilla reference signal, replicate 1": 3564, "Renilla reference signal, replicate 2": 7053, "Call": "inactive"}
{"predicted target": "Indy (GeneID 40049)", "DRSC id": "DRSC10393", "firefly Hh reporter signal, replicate 1": 74090, "firefly Hh reporter signal, replicate 2": 50576, "Renilla reference signal, replicate 1": 3008, "Renilla reference signal, replicate 2": 2263, "Call": "inactive"}
